Experimental data: article PMC11389919
No constants are given. Whether binding was seen depends on the method and setting. A result given as binding can be weak or reduced; the word gives no strength. Tags and fused reporters may be left off the sequences shown.

B1: TCP17 fused to the GAL4 activation domain (pGADT7) (protein, UniProt Q9LEZ9 1-242)
chain: MGIKKEDQKSSLSLLTQRWNNPRIVRVSRAFGGKDRHSKVCTVRGLRDRRIRLSVMTAIQVYDLQERLGLSQPSKVIDWLLEVAKNDVDLLPPLQFPPGFHQLNPNLTGLGESFPGVFDLGRTQREALDLEKRKWVNLDHVFDHIDHHNHFSNSIQSNKLYFPTITSSSSSYHYNLGHLQQSLLDQSGNVTVAFSNNYNNNNLNPPAAETMSSLFPTRYPSFLGGGQLQLFSSTSSQPDHIE

What was measured:
[1] = molecular target: T1, TCP17 fused to the GAL4 activation domain (pGADT7) (Arabidopsis) (UniProt Q9LEZ9); assay: two-hybrid; yeast three-hybrid: AD-TCP17 (pGADT7) with BD-TCP17 and a third protein (NSs, γb, NS3, P19 or MBP control) from pBridge, the third protein expressed only without methionine; SD/-T-L-H-A and SD/-T-L-H-A-M plates, 30°C, 5 d
T1 sequence: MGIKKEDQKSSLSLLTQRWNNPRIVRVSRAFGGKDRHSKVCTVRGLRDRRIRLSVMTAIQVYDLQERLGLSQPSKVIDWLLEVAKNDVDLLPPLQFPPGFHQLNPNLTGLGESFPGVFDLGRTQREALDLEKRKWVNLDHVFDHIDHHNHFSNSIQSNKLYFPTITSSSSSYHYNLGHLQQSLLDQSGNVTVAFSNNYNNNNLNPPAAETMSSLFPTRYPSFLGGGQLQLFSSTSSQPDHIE

[2] = molecular target: RSV NS3 fused to the GAL4 binding domain (pGBKT7) (Rice stripe virus); assay: two-hybrid; viral proteins fused to the GAL4 binding domain (pGBKT7, bait), TCP17 fused to the GAL4 activation domain (pGADT7, prey); co-transformed yeast on SD/-Trp-Leu-His-Ade, 30°C
[3] = molecular target: BSMV γb fused to the GAL4 binding domain (pGBKT7) (Barley stripe mosaic virus); assay: as above

Molecule	binding [1]	binding [2]	binding [3]
BSMV γb expressed as the third protein from pBridge (pBridge-TCP17-γb) (Barley stripe mosaic virus)	binds	–	–
RSV NS3 expressed as the third protein from pBridge (pBridge-TCP17-NS3) (Rice stripe virus)	binds	–	–
B1	–	binds	binds
